Article PMC9392749

Chains of the proteins cited; added tags and fusions are not shown. Residues count along the entry.
UniProt Q06416: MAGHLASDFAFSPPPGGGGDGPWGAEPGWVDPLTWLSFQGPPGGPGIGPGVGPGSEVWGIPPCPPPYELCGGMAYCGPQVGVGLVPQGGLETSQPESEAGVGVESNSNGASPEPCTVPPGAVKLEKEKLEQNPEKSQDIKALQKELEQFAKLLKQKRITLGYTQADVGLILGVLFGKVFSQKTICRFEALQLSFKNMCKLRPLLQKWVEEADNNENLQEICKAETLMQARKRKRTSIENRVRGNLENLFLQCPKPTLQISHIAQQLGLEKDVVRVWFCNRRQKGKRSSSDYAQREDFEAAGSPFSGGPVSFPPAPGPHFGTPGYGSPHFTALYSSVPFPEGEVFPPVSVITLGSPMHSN
UniProt Q9H9Y6: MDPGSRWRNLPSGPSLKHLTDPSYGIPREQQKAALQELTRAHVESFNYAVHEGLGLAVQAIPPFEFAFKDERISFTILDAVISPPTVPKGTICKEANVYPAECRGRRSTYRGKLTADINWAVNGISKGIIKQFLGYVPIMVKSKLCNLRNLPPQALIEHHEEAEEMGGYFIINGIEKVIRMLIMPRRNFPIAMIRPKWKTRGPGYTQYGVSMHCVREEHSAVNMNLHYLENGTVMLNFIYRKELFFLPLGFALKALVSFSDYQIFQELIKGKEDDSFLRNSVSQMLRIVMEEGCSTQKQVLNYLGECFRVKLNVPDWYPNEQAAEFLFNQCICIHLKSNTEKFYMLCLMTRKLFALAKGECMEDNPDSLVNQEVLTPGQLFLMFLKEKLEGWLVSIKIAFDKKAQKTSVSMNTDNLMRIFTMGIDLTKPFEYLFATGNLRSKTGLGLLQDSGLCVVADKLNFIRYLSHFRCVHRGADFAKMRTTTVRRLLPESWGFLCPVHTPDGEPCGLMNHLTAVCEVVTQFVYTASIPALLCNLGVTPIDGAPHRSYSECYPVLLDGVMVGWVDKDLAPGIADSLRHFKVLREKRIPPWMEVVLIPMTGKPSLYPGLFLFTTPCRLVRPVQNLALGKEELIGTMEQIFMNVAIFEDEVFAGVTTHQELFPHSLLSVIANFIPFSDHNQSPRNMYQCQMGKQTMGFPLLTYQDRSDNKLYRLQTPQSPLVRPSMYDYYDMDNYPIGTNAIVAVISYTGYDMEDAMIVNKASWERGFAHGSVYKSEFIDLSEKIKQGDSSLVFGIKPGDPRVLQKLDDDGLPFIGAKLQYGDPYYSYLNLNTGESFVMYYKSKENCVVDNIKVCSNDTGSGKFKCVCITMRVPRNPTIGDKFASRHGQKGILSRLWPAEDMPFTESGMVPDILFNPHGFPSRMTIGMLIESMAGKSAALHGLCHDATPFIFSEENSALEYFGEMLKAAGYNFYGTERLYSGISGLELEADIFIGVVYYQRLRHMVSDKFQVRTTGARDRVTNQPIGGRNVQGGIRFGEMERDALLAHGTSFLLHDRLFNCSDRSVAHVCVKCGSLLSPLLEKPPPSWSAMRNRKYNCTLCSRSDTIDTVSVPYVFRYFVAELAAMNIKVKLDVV
UniProt Q04912, residues 25-1400: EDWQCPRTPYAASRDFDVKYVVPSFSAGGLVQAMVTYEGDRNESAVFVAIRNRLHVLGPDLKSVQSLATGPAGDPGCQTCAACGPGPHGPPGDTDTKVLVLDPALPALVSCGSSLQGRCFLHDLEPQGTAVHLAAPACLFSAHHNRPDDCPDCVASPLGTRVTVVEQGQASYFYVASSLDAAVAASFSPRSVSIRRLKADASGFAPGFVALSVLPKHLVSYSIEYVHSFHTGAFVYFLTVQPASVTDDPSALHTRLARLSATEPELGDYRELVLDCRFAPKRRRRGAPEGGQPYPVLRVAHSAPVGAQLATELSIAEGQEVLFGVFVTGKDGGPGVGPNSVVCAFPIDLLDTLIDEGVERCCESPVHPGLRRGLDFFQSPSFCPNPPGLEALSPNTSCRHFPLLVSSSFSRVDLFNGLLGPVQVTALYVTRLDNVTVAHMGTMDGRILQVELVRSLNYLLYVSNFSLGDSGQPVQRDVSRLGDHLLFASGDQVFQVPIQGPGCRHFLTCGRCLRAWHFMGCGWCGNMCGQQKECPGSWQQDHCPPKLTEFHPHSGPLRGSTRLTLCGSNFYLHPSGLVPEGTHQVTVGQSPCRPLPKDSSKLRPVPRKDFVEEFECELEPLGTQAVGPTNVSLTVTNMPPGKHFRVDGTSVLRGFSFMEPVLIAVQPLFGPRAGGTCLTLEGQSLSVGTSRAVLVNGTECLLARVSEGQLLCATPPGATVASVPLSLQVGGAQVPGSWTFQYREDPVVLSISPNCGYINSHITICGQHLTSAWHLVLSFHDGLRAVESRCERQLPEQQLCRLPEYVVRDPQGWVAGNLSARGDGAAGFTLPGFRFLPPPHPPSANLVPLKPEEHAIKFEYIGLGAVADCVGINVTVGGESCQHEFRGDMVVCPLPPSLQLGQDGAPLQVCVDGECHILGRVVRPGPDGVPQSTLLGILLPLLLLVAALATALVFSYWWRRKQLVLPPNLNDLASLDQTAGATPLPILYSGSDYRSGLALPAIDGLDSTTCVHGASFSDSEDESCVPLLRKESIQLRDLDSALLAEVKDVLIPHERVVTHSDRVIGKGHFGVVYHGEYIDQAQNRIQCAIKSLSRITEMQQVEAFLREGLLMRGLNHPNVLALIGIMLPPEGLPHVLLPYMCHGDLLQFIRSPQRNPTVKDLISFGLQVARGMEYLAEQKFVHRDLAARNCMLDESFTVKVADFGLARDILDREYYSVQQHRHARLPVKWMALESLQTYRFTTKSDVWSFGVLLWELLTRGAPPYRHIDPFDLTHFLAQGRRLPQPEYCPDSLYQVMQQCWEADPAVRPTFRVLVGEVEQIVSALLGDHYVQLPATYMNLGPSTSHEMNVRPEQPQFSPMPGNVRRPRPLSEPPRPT
UniProt O43156: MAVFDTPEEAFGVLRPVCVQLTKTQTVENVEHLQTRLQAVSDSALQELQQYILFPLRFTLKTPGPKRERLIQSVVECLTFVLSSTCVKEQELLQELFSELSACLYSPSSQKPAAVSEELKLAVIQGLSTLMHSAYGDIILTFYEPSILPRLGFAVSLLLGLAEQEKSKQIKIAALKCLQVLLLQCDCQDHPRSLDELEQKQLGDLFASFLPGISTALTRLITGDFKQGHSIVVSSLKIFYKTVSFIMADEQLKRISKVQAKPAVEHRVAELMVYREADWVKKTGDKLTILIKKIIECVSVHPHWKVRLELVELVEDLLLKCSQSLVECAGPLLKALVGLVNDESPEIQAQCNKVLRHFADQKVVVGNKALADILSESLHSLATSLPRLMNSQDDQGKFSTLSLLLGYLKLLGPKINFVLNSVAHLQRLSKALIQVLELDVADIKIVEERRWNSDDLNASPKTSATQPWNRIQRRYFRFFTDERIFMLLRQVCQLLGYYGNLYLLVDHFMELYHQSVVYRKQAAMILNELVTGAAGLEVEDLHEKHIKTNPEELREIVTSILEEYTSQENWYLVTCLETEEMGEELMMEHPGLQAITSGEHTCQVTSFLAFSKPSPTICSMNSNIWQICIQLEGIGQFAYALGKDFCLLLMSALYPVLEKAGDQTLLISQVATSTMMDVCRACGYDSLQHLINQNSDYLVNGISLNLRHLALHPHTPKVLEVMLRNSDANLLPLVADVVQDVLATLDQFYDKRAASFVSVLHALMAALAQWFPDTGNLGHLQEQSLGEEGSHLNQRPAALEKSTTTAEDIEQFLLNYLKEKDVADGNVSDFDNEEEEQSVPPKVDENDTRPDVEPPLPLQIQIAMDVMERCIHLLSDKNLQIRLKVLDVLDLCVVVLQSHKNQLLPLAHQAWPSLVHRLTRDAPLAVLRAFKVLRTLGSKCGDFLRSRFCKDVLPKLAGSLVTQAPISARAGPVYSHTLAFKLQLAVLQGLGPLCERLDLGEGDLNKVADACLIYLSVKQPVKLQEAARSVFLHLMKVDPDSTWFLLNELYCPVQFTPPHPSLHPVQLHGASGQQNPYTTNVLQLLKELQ
UniProt Q92673, residues 82-2214: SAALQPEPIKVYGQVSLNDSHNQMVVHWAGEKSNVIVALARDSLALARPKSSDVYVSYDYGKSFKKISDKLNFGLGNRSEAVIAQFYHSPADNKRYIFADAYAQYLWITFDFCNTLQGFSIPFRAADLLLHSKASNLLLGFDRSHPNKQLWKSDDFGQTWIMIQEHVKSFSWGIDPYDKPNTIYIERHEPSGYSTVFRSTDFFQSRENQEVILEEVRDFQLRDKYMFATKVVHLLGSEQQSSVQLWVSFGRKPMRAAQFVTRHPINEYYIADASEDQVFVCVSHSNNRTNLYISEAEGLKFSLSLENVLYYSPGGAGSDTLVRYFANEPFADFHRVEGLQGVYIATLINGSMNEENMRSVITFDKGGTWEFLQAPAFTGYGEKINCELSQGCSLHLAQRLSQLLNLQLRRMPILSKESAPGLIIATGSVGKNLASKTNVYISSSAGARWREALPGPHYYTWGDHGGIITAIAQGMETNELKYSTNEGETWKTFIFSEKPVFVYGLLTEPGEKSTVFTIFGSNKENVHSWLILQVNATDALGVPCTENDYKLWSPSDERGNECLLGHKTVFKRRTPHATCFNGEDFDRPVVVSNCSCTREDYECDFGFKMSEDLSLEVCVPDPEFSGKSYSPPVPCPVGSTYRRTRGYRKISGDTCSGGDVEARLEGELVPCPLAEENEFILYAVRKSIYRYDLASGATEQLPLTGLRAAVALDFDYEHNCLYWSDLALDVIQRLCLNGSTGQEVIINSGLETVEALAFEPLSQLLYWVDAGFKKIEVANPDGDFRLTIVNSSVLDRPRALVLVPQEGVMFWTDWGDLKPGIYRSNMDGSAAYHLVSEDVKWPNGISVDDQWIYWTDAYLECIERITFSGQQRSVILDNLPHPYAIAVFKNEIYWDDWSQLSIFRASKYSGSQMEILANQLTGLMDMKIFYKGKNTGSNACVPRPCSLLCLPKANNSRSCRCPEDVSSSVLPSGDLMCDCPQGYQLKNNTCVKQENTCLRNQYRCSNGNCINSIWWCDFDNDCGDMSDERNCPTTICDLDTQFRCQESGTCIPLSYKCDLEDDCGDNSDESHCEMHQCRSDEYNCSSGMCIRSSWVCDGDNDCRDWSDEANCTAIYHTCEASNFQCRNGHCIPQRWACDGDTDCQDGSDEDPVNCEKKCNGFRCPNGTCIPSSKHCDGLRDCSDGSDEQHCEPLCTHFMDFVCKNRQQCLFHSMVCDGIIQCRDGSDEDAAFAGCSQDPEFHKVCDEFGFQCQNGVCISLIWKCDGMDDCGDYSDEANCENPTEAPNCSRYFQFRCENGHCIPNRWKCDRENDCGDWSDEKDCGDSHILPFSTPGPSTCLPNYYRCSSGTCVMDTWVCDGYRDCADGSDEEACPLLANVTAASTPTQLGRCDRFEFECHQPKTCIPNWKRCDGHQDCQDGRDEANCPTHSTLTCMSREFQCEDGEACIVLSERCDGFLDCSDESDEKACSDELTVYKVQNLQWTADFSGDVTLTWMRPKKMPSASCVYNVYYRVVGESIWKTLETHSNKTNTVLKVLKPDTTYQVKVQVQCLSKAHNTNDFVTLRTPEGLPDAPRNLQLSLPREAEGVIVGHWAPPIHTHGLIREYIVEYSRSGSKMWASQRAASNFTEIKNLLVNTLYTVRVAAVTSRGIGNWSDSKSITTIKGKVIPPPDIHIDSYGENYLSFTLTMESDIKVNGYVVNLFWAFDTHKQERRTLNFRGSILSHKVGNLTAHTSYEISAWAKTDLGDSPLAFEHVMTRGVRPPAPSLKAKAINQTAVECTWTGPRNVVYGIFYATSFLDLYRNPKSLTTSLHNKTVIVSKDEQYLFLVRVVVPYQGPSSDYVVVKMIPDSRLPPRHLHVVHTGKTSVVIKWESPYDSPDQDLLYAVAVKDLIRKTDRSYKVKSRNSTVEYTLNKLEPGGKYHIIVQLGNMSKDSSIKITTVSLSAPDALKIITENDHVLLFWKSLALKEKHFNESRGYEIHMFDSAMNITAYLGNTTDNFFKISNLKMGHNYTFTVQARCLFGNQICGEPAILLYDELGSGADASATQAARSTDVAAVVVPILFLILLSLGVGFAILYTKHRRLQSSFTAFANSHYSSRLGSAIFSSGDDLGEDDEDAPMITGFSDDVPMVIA

Target: HA-tagged POU5F1B (human) (UniProt Q06416)
Experiment: affinity purification with mass spectrometry; HA-tagged POU5F1B (control: HA-GFP) overexpressed in LS1034 and HT29 cells; lysis in HNN buffer (0.5% NP40, 50 mM HEPES pH 7.5, 150 mM NaCl), lysate fixed with 3 mM DSP, benzonase; anti-HA agarose beads 2 h at 4 °C; elution with 0.2 M glycine pH 2.5; LC-MS/MS; hits: fold change over controls >5 and adjusted P < 0.01

| binding | Molecule |
| --- | --- |
| binds | PRKCA (from UniProt P17252 1-672) (enzyme) |
| binds | POLR1B (from UniProt Q9H9Y6 1-1135) (enzyme) |
| binds | receptor tyrosine kinase (RTK) ERBB2 (from UniProt P04626 23-1255) |
| binds | RIN1 (from UniProt Q13671 1-783) |
| binds | MST1R (from UniProt Q04912 25-1400) (receptor) |
| binds | POLR1A (from UniProt O95602 1-1720) (enzyme) |
| binds | TTI1 (from UniProt O43156 1-1089) |
| binds | SORL1 (from UniProt Q92673 82-2214) |
| binds | LPCAT4 (enzyme, UniProt Q643R3 1-524) MSQGSPGDWAPLDPTPGPPASPNPFVHELHLSRLQRVKFCLLGALLAPIRVLLAFIVLFLLWPFAWLQVAGLSEEQLQEPITGWRKTVCHNGVLGLSRLLFFLLGFLRIRVRGQRASRLQAPVLVAAPHSTFFDPIVLLPCDLPKVVSRAENLSVPVIGALLRFNQAILVSRHDPASRRRVVEEVRRRATSGGKWPQVLFFPEGTCSNKKALLKFKPGAFIAGVPVQPVLIRYPNSLDTTSWAWRGPGVLKVLWLTASQPCSIVDVEFLPVYHPSPEESRDPTLYANNVQRVMAQALGIPATECEFVGSLPVIVVGRLKVALEPQLWELGKVLRKAGLSAGYVDAGAEPGRSRMISQEEFARQLQLSDPQTVAGAFGYFQQDTKGLVDFRDVALALAALDGGRSLEELTRLAFELFAEEQAEGPNRLLYKDGFSTILHLLLGSPHPAATALHAELCQAGSSQGLSLCQFQNFSLHDPLYGKLFSTYLRPPHTSRGTSQTPNASSPGNPTALANGTVQAPKQKGD |
| binds | PLEKHA5 (protein, UniProt Q9HAU0 1-1116) MAADLNLEWISLPRSWTYGITRGGRVFFINEEAKSTTWLHPVTGEAVVTGHRRQSTDLPTGWEEAYTFEGARYYINHNERKVTCKHPVTGQPSQDNCIFVVNEQTVATMTSEEKKERPISMINEASNYNVTSDYAVHPMSPVGRTSRASKKVHNFGKRSNSIKRNPNAPVVRRGWLYKQDSTGMKLWKKRWFVLSDLCLFYYRDEKEEGILGSILLPSFQIALLTSEDHINRKYAFKAAHPNMRTYYFCTDTGKEMELWMKAMLDAALVQTEPVKRVDKITSENAPTKETNNIPNHRVLIKPEIQNNQKNKEMSKIEEKKALEAEKYGFQKDGQDRPLTKINSVKLNSLPSEYESGSACPAQTVHYRPINLSSSENKIVNVSLADLRGGNRPNTGPLYTEADRVIQRTNSMQQLEQWIKIQKGRGHEEETRGVISYQTLPRNMPSHRAQIMARYPEGYRTLPRNSKTRPESICSVTPSTHDKTLGPGAEEKRRSMRDDTMWQLYEWQQRQFYNKQSTLPRHSTLSSPKTMVNISDQTMHSIPTSPSHGSIAAYQGYSPQRTYRSEVSSPIQRGDVTIDRRHRAHHPKHVYVPDRRSVPAGLTLQSVSPQSLQGKTLSQDEGRGTLYKYRPEEVDIDAKLSRLCEQDKVVHALEEKLQQLHKEKYTLEQALLSASQEIEMHADNPAAIQTVVLQRDDLQNGLLSTCRELSRATAELERAWREYDKLEYDVTVTRNQMQEQLDHLGEVQTESAGIQRAQIQKELWRIQDVMEGLSKHKQQRGTTEIGMIGSKPFSTVKYKNEGPDYRLYKSEPELTTVAEVDESNGEEKSEPVSEIETSVVKGSHFPVGVVPPRAKSPTPESSTIASYVTLRKTKKMMDLRTERPRSAVEQLCLAESTRPRMTVEEQMERIRRHQQACLREKKKGLNVIGASDQSPLQSPSNLRDNPFRTTQTRRRDDKELDTAIRENDVKPDHETPATEIVQLKETEPQNVDFSKELKKTENISYEMLFEPEPNGVNSVEMMDKERNKDKMPEDVTFSPQDETQTANHKPEEHPEENTKNSVDEQEETVISYESTPEVSRGNQTMAVKSLSPSPESSASPVPSTQPQLTEGSHFMCV |
| binds | CEMIP (protein, UniProt Q8WUJ3 31-1361) TVAAGCPDQSPELQPWNPGHDQDHHVHIGQGKTLLLTSSATVYSIHISEGGKLVIKDHDEPIVLRTRHILIDNGGELHAGSALCPFQGNFTIILYGRADEGIQPDPYYGLKYIGVGKGGALELHGQKKLSWTFLNKTLHPGGMAEGGYFFERSWGHRGVIVHVIDPKSGTVIHSDRFDTYRSKKESERLVQYLNAVPDGRILSVAVNDEGSRNLDDMARKAMTKLGSKHFLHLGFRHPWSFLTVKGNPSSSVEDHIEYHGHRGSAAARVFKLFQTEHGEYFNVSLSSEWVQDVEWTEWFDHDKVSQTKGGEKISDLWKAHPGKICNRPIDIQATTMDGVNLSTEVVYKKGQDYRFACYDRGRACRSYRVRFLCGKPVRPKLTVTIDTNVNSTILNLEDNVQSWKPGDTLVIASTDYSMYQAEEFQVLPCRSCAPNQVKVAGKPMYLHIGEEIDGVDMRAEVGLLSRNIIVMGEMEDKCYPYRNHICNFFDFDTFGGHIKFALGFKAAHLEGTELKHMGQQLVGQYPIHFHLAGDVDERGGYDPPTYIRDLSIHHTFSRCVTVHGSNGLLIKDVVGYNSLGHCFFTEDGPEERNTFDHCLGLLVKSGTLLPSDRDSKMCKMITEDSYPGYIPKPRQDCNAVSTFWMANPNNNLINCAAAGSEETGFWFIFHHVPTGPSVGMYSPGYSEHIPLGKFYNNRAHSNYRAGMIIDNGVKTTEASAKDKRPFLSIISARYSPHQDADPLKPREPAIIRHFIAYKNQDHGAWLRGGDVWLDSCRFADNGIGLTLASGGTFPYDDGSKQEIKNSLFVGESGNVGTEMMDNRIWGPGGLDHSGRTLPIGQNFPIRGIQLYDGPINIQNCTFRKFVALEGRHTSALAFRLNNAWQSCPHNNVTGIAFEDVPITSRVFFGEPGPWFNQLDMDGDKTSVFHDVDGSVSEYPGSYLTKNDNWLVRHPDCINVPDWRGAICSGCYAQMYIQAYKTSNLRMKIIKNDFPSHPLYLEGALTRSTHYQQYQPVVTLQKGYTIHWDQTAPAELAIWLINFNKGDWIRVGLCYPRGTTFSILSDVHNRLLKQTSKTGVFVRTLQMDKVEQSYPGRSHYYWDEDSGLLFLKLKAQNEREKFAFCSMKGCERIKIKALIPKNAGVSDCTATAYPKFTERAVVDVPMPKKLFGSQLKTKDHFLEVKMESSKQHFFHLWNDFAYIEVDGKKYPSSEDGIQVVVIDGNQGRVVSHTSFRNSILQGIPWQLFNYVATIPDNSIVLMASKGRYVSRGPWTRVLEKLGADRGLKLKEQMAFVGFKGSFRPIWVTLDTEDHKAKIFQVVPIPVVKKKKL |
| binds | FKBP5 (protein, UniProt Q13451 1-457) MTTDEGAKNNEESPTATVAEQGEDITSKKDRGVLKIVKRVGNGEETPMIGDKVYVHYKGKLSNGKKFDSSHDRNEPFVFSLGKGQVIKAWDIGVATMKKGEICHLLCKPEYAYGSAGSLPKIPSNATLFFEIELLDFKGEDLFEDGGIIRRTKRKGEGYSNPNEGATVEIHLEGRCGGRMFDCRDVAFTVGEGEDHDIPIGIDKALEKMQREEQCILYLGPRYGFGEAGKPKFGIEPNAELIYEVTLKSFEKAKESWEMDTKEKLEQAAIVKEKGTVYFKGGKYMQAVIQYGKIVSWLEMEYGLSEKESKASESFLLAAFLNLAMCYLKLREYTKAVECCDKALGLDSANEKGLYRRGEAQLLMNEFESAKGDFEKVLEVNPQNKAARLQISMCQKKAKEHNERDRRIYANMFKKFAEQDAKEEANKAMGKKTSEGVTNEKGTDSQAMEEEKPEGHV |

No constants are given. Whether binding was seen depends on the method and setting. In cells and extracts the contact can be indirect. These calls come from enrichment with a bait or labelling near it, and not all partners need be listed.
